Experimental data reported in publication PMC8384837.
Numbering of substitutions follows the chain as printed. Some of the results follow. For part of these data: At the low end of the ranking, values are background and their order means little.

Key:
Settings in all cases: yeast three-hybrid, YBZ-1, SC-Leu-His + 0.5 mM 3-AT, 4 days
[1] = target: T1, PUM1 PUF domain R5-AAR C1007A + R1008A + Q1011R (Homo sapiens) (UniProt Q14671)
T1 sequence: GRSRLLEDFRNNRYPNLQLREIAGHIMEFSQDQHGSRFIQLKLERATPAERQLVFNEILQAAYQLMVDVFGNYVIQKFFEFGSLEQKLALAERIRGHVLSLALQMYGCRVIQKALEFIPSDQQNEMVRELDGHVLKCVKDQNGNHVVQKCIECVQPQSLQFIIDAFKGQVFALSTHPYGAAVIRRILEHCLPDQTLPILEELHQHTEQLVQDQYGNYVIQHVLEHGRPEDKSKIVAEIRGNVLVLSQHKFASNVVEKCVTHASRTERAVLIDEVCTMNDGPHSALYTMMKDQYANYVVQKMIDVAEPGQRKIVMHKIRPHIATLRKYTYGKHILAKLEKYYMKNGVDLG

[2] = target: T2, PUM1 PUF domain R5-AFF C1007A + R1008F + Q1011F (UniProt Q14671)
T2 sequence: T1 sequence with A181F, R184F

[3] = target: T3, PUM1 PUF domain R5-AFY C1007A + R1008F + Q1011Y (UniProt Q14671)
T3 sequence: T1 sequence with A181F, R184Y

[4] = target: T4, PUM1 PUF domain R5-AGR C1007A + R1008G + Q1011R (UniProt Q14671)
T4 sequence: T1 sequence with A181G

[5] = target: T5, PUM1 PUF domain R5-AKR C1007A + R1008K + Q1011R (Homo sapiens) (UniProt Q14671)
T5 sequence: T1 sequence with A181K

[6] = target: T6, PUM1 PUF domain R5-AQR C1007A + R1008Q + Q1011R (UniProt Q14671)
T6 sequence: T1 sequence with A181Q

[7] = target: T7, PUM1 PUF domain R5-ARR C1007A + Q1011R (Homo sapiens) (UniProt Q14671)
T7 sequence: T1 sequence with A181R

[8] = target: T8, PUM1 PUF domain R5-ASR C1007A + R1008S + Q1011R (Homo sapiens) (UniProt Q14671)
T8 sequence: T1 sequence with A181S

[9] = target: T9, PUM1 PUF domain R5-ATR C1007A + R1008T + Q1011R (UniProt Q14671)
T9 sequence: T1 sequence with A181T

[10] = target: T10, PUM1 PUF domain R5-AYF C1007A + R1008Y + Q1011F (Homo sapiens) (UniProt Q14671)
T10 sequence: T1 sequence with A181Y, R184F

[11] = target: T11, PUM1 PUF domain R5-AYY C1007A + R1008Y + Q1011Y (Homo sapiens) (UniProt Q14671)
T11 sequence: T1 sequence with A181Y, R184Y

[12] = target: T12, PUM1 PUF domain R5-CGR R1008G + Q1011R (UniProt Q14671)
T12 sequence: T1 sequence with A180C, A181G

[13] = target: T13, PUM1 PUF domain R5-CRR Q1011R (UniProt Q14671)
T13 sequence: T1 sequence with A180C, A181R

[14] = target: T14, PUM1 PUF domain R5-CSR R1008S + Q1011R (Homo sapiens) (UniProt Q14671)
T14 sequence: T1 sequence with A180C, A181S

[15] = target: T15, PUM1 PUF domain R5-DLR C1007D + R1008L + Q1011R (UniProt Q14671)
T15 sequence: T1 sequence with A180D, A181L

[16] = target: T16, PUM1 PUF domain R5-DQR C1007D + R1008Q + Q1011R (Homo sapiens) (UniProt Q14671)
T16 sequence: T1 sequence with A180D, A181Q

[17] = target: T17, PUM1 PUF domain R5-DRR C1007D + Q1011R (UniProt Q14671)
T17 sequence: T1 sequence with A180D, A181R

[18] = target: T18, PUM1 PUF domain R5-ELW C1007E + R1008L + Q1011W (UniProt Q14671)
T18 sequence: T1 sequence with A180E, A181L, R184W

[19] = target: T19, PUM1 PUF domain R5-ERK C1007E + Q1011K (Homo sapiens) (UniProt Q14671)
T19 sequence: T1 sequence with A180E, A181R, R184K

[20] = target: T20, PUM1 PUF domain R5-FKR C1007F + R1008K + Q1011R (UniProt Q14671)
T20 sequence: T1 sequence with A180F, A181K

[21] = target: T21, PUM1 PUF domain R5-FRG C1007F + Q1011G (Homo sapiens) (UniProt Q14671)
T21 sequence: T1 sequence with A180F, A181R, R184G

[22] = target: T22, PUM1 PUF domain R5-FRI C1007F + Q1011I (Homo sapiens) (UniProt Q14671)
T22 sequence: T1 sequence with A180F, A181R, R184I

[23] = target: T23, PUM1 PUF domain R5-FRN C1007F + Q1011N (Homo sapiens) (UniProt Q14671)
T23 sequence: T1 sequence with A180F, A181R, R184N

[24] = target: T24, PUM1 PUF domain R5-FRR C1007F + Q1011R (Homo sapiens) (UniProt Q14671)
T24 sequence: T1 sequence with A180F, A181R

[25] = target: T25, PUM1 PUF domain R5-FRS C1007F + Q1011S (Homo sapiens) (UniProt Q14671)
T25 sequence: T1 sequence with A180F, A181R, R184S

[26] = target: T26, PUM1 PUF domain R5-FRT C1007F + Q1011T (Homo sapiens) (UniProt Q14671)
T26 sequence: T1 sequence with A180F, A181R, R184T

[27] = target: T27, PUM1 PUF domain R5-FRV C1007F + Q1011V (Homo sapiens) (UniProt Q14671)
T27 sequence: T1 sequence with A180F, A181R, R184V

[28] = target: T28, PUM1 PUF domain R5-FRW C1007F + Q1011W (UniProt Q14671)
T28 sequence: T1 sequence with A180F, A181R, R184W

[29] = target: T29, PUM1 PUF domain R5-GAR C1007G + R1008A + Q1011R (Homo sapiens) (UniProt Q14671)
T29 sequence: T1 sequence with A180G

[30] = target: T30, PUM1 PUF domain R5-GGR C1007G + R1008G + Q1011R (Homo sapiens) (UniProt Q14671)
T30 sequence: T1 sequence with A180G, A181G

[31] = target: T31, PUM1 PUF domain R5-GKC C1007G + R1008K + Q1011C (Homo sapiens) (UniProt Q14671)
T31 sequence: T1 sequence with A180G, A181K, R184C

[32] = target: T32, PUM1 PUF domain R5-GKH C1007G + R1008K + Q1011H (Homo sapiens) (UniProt Q14671)
T32 sequence: T1 sequence with A180G, A181K, R184H

[33] = target: T33, PUM1 PUF domain R5-GKN C1007G + R1008K + Q1011N (UniProt Q14671)
T33 sequence: T1 sequence with A180G, A181K, R184N

[34] = target: T34, PUM1 PUF domain R5-GKR C1007G + R1008K + Q1011R (Homo sapiens) (UniProt Q14671)
T34 sequence: T1 sequence with A180G, A181K

[35] = target: T35, PUM1 PUF domain R5-GKS C1007G + R1008K + Q1011S (UniProt Q14671)
T35 sequence: T1 sequence with A180G, A181K, R184S

[36] = target: T36, PUM1 PUF domain R5-GLW C1007G + R1008L + Q1011W (Homo sapiens) (UniProt Q14671)
T36 sequence: T1 sequence with A180G, A181L, R184W

[37] = target: T37, PUM1 PUF domain R5-GMR C1007G + R1008M + Q1011R (Homo sapiens) (UniProt Q14671)
T37 sequence: T1 sequence with A180G, A181M

[38] = target: T38, PUM1 PUF domain R5-GPR C1007G + R1008P + Q1011R (Homo sapiens) (UniProt Q14671)
T38 sequence: T1 sequence with A180G, A181P

[39] = target: T39, PUM1 PUF domain R5-GQA C1007G + R1008Q + Q1011A (Homo sapiens) (UniProt Q14671)
T39 sequence: T1 sequence with A180G, A181Q, R184A

[40] = target: T40, PUM1 PUF domain R5-GRF C1007G + Q1011F (Homo sapiens) (UniProt Q14671)
T40 sequence: T1 sequence with A180G, A181R, R184F

[41] = target: T41, PUM1 PUF domain R5-GRR C1007G + Q1011R (Homo sapiens) (UniProt Q14671)
T41 sequence: T1 sequence with A180G, A181R

[42] = target: T42, PUM1 PUF domain R5-GRW C1007G + Q1011W (Homo sapiens) (UniProt Q14671)
T42 sequence: T1 sequence with A180G, A181R, R184W

Sequence: GGCUAGAACUAGUGGAUCCCCCGGCGCCCGGCGGCUCGAGCCCGGGUAAGUGUGAAUAGUCUGCAUGCCGCCGGGCGCCAUGCCUGCAGGUCGACUCUAGAAAACAUG
- binding signal (log2 enrichment (interaction score)) [1]: -1.82
- binding signal (log2 enrichment (interaction score)) [2]: -5.66
- binding signal (log2 enrichment (interaction score)) [3]: -3.16
- binding signal (log2 enrichment (interaction score)) [4]: -2.88
- binding signal (log2 enrichment (interaction score)) [5]: -0.7
- binding signal (log2 enrichment (interaction score)) [6]: -3.4
- binding signal (log2 enrichment (interaction score)) [7]: -1.87
- binding signal (log2 enrichment (interaction score)) [8]: -1.48
- binding signal (log2 enrichment (interaction score)) [9]: -2.03
- binding signal (log2 enrichment (interaction score)) [10]: -0.79
- binding signal (log2 enrichment (interaction score)) [11]: -0.77
- binding signal (log2 enrichment (interaction score)) [12]: -6.8
- binding signal (log2 enrichment (interaction score)) [13]: -2.31
- binding signal (log2 enrichment (interaction score)) [14]: -0.83
- binding signal (log2 enrichment (interaction score)) [15]: < -8.62
- binding signal (log2 enrichment (interaction score)) [16]: -0.9
- binding signal (log2 enrichment (interaction score)) [17]: -5.03
- binding signal (log2 enrichment (interaction score)) [18]: < -7.45
- binding signal (log2 enrichment (interaction score)) [19]: -0.9
- binding signal (log2 enrichment (interaction score)) [20]: -2.61
- binding signal (log2 enrichment (interaction score)) [21]: -1.67
- binding signal (log2 enrichment (interaction score)) [22]: -0.86
- binding signal (log2 enrichment (interaction score)) [23]: -1.56
- binding signal (log2 enrichment (interaction score)) [24]: 0.33
- binding signal (log2 enrichment (interaction score)) [25]: -1.51
- binding signal (log2 enrichment (interaction score)) [26]: -1.95
- binding signal (log2 enrichment (interaction score)) [27]: -1.89
- binding signal (log2 enrichment (interaction score)) [28]: < -7.16
- binding signal (log2 enrichment (interaction score)) [29]: -1.76
- binding signal (log2 enrichment (interaction score)) [30]: -0.79
- binding signal (log2 enrichment (interaction score)) [31]: -0.51
- binding signal (log2 enrichment (interaction score)) [32]: -1.64
- binding signal (log2 enrichment (interaction score)) [33]: -2.75
- binding signal (log2 enrichment (interaction score)) [34]: -0.14
- binding signal (log2 enrichment (interaction score)) [35]: -4.1
- binding signal (log2 enrichment (interaction score)) [36]: -1.74
- binding signal (log2 enrichment (interaction score)) [37]: -0.66
- binding signal (log2 enrichment (interaction score)) [38]: -0.67
- binding signal (log2 enrichment (interaction score)) [39]: -0.43
- binding signal (log2 enrichment (interaction score)) [40]: -1.5
- binding signal (log2 enrichment (interaction score)) [41]: -0.32
- binding signal (log2 enrichment (interaction score)) [42]: 0.06
